Measured values reported in patent US11878972B2, “Treatment of neurological disorders” (TORQUR AG, priority 2016, dated 2024).
For at least one compound, name, drawing or mass did not settle the structure. Some compounds share one wording; it may come from a single statement. Some results were stated once for a whole list of compounds, not compound by compound.

How the values were obtained:
[1] = tested on: 51Q-HTT-Exon1-eGFP transfected HEK cells; assay: Filter trap assay of mutHTT aggregates; format: cell-based, human; conditions: 8 hours; Cpd. 3 400, 1230 nM; Cpd. 8 130, 1230 nM; INK128 100 nM; Rapamycin 400 nM
Description: HEK cells were transiently transfected with pcDNA3.1/V5-His vector from Clontech (Mountain View, USA) containing the expression sequence for Exon1 of HTT with a 19Q (no aggregation) or 51Q extension and enhanced green fluorescence protein (eGFP) tag using Attractene Transfection Reagent (Qiagen, Netherlands). 1×10^6 cells were seeded in a 6 well plate. On the next day 2 μg DNA were mixed with 95.5 μl transfection media and 4.5 μl transfection reagent. After an incubation time of 15 min the mixture was added to the cells. After 72 hours cells were harvested or fixed for analysis.
HEK cells transfected with 19Q- or 51Q-HTT-Exon1-eGFP were treated with DMSO control. 51Q-HTT-Exon I-eGFP HEK cells form aggregates. These cells were treated with Cpd. 3 (400, 1230 nM), Cpd. […] After 30 min incubation on ice, cells were homogenized (Dounce Homogenizer, Thermo Fisher, USA). 50 μg of protein solution in PBS was supplemented with 2% SDS (Roth, Germany). Samples were sucked through a nitrocellulose membrane (0.45 μm) and washed twice with PBS buffer.

[2] = tested on: mTOR signaling (S6rP and 4E-BP phosphorylation) in STHdh^Q7/Q7 and STHdh^Q111/Q111 cells; assay: mTOR signaling in STHdh cells (western blot); format: cell-based, mouse; conditions: 4 hours; Cpd. 3 200, 400, 1230 nM; Cpd. 8 130, 1230 nM; INK128 100 nM; rapamycin 400 nM
[3] = tested on: S6 phosphorylation (S235/236); assay: mTOR signaling in brain samples of pilocarpine pre-treated and naïve mice (western blot); format: in vivo, mouse; conditions: epileptic/pilocarpine pre-treated and naïve mice, single oral dose
Description: A ramping-up dosing protocol was used which has the advantage that pilocarpine can be individually applied according to the susceptibility of each mouse. Pilocarpine (Sigma-Aldrich, Germany) was administered to female NMRI mice intraperitoneally at a dose of 100 mg/kg (Pilo-SE group). […] To reduce peripheral side effects of pilocarpine, methylscopolamine (Sigma-Aldrich, Germany) was administered 30 minutes prior to the first injection of pilocarpine. Animals were continuously monitored and duration of convulsive SE was registered [referred to Racine's scale. […]
Brain samples from pilocarpine treated mice and untreated mice were snap frozen and tissue was lysed in buffer containing 25 mM Tris-HCl, pH 8, 50 mM NaCl, 0.5% (w/v) sodium deoxycholate (DOC), and 0.5% (w/v) Triton X-100 and supplemented with complete protease inhibitor (Roche, Mannheim, Germany) and Phosphostop (NEB, USA). […] Protein concentrations in the lysates were determined by using the Pierce BCA Protein Assay kit (Thermo Scientific, Bonn, Germany) according to the manufacturer's instructions. […] Proteins were detected by enhanced chemiluminescence using SuperSignal West Femto Chemiluminescent Substrate (Thermo Scientific) and the ChemiDoc system (Bio-Rad, Munich, Germany) with QuantityOne software (Bio-Rad) according to the manufacturer's protocol. […]

[4] = tested on: mTOR signaling cascade (phosphorylation of S6rP and AKT); assay: Target engagement in brain and thigh muscle (western blot); format: in vivo, mouse; conditions: single oral 50 mg/kg
Description: Tissue was snap frozen in liquid nitrogen and stored at −80° C. Tissue was thawed and lysed in RIPA buffer 1 ml/half brain. Complete protease inhibitor and PhosStop phosphatase inhibitor (Roche) was added to the buffer before lysis. Tissue was homogenized manually and centrifuged twice at 16000 rpm, 4° C. for 20 minutes. Supernatant was frozen with 10% glycerol at −80° C. Protein concentration was performed using Bradford reagent. For western blot analysis of AKT and S6rP phosphorylation, 30 μg of protein was denatured with β-mercaptoethanol at 95° C. and separated on SDS page gels at 100 V. Then proteins were transferred to a nitrocellulose membrane (Bio-Rad, USA) at 80 V. Non-specific binding was blocked with 5% bovine serum albumin (BSA) (Sigma-Aldrich, USA). Membranes were incubated over night with primary antibody dissolved in TBST, 5% BSA at 4° C. and with secondary antibody coupled to horseradish peroxidase (GE Healthcare, UK) for 1 hour at RT and washed. Imaging of protein bands was performed using Luminol (Biozym, Hamburg, Germany. On a Li-Cor Odyssey FC reader. Quantification of S6-phosphorylation was determined with the same imaging system.
The following antibodies were used: • AKT, P-AKT (S473), S6rP, P-S6rP(S235/236): Cell Signaling (UK) • β-actin: Sigma Aldrich, USA

SMILES | mutHTT aggregates (filter trap) [1] | mTOR signaling (S6rP phosphorylation and 4E-BP phosphorylation) [2] | S6 phosphorylation / mTOR signaling in brain (FIG. 3B) [3] | phosphorylation of S6rP and AKT in brain and thigh muscle ([4]; B57BL/6J mice) | duration of altered mTOR signaling after administration ([4]; B57BL/6J mice, altered from 30 min) | S6 phosphorylation in brain lysates ([4]; mice, 30 minutes to 8 hours) | S6 phosphorylation in thigh muscle lysates ([4]; mice, 30 minutes to 8 hours)
CO[C@H]1C[C@@H]2CC[C@@H](C)[C@@](O)(O2)C(=O)C(=O)N2CCCC[C@H]2C(=O)O[C@H]([C@H](C)C[C@@H]2CC[C@@H](O)[C@H](OC)C2)CC(=O)[C@H](C)/C=C(\C)[C@@H](O)[C@@H](OC)C(=O)[C@H](C)C[C@H](C)/C=C/C=C/C=C/1C [rapamycin, reference compound] | significant reduction of cytotoxic mutHTT aggregates | – | – | – | – | – | –
CC(C)n1nc(-c2ccc3oc(N)nc3c2)c2c(N)ncnc21 [INK128, Sapanisertib, reference compound] | significant reduction of cytotoxic mutHTT aggregates | – | – | – | – | – | –
C[C@H]1COCCN1c1nc(-c2cnc(N)cc2C(F)F)nc(N2CCOCC2)n1 [Compound 8, (S)-4-(difluoromethyl)-5-(4-(3-methylmorpholino)-6-morpholino-1,3,5-triazin-2-yl)pyridin-2-amine] | – | also inhibited mTOR signaling | significantly inhibited S6 phosphorylation in brain | significantly reduced phosphorylation of S6rP and AKT | at least 8 hours | reduction of S6 phosphorylation | reduction of S6 phosphorylation
